Reference: the supplement of paper PMC10849652
The other results are listed elsewhere or left out.

The chains behind the UniProt entries cited, without tags or fusion partners. Where a name states a change or a piece, a line headed by the entry shows the natural chain unless it says otherwise.
UniProt Q96S90: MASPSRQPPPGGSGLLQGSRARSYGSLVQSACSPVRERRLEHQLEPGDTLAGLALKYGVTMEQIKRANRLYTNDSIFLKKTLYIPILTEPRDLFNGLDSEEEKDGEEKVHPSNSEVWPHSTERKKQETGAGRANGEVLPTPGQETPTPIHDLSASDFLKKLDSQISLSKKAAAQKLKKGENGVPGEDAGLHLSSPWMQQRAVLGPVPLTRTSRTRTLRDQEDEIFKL
UniProt P45985: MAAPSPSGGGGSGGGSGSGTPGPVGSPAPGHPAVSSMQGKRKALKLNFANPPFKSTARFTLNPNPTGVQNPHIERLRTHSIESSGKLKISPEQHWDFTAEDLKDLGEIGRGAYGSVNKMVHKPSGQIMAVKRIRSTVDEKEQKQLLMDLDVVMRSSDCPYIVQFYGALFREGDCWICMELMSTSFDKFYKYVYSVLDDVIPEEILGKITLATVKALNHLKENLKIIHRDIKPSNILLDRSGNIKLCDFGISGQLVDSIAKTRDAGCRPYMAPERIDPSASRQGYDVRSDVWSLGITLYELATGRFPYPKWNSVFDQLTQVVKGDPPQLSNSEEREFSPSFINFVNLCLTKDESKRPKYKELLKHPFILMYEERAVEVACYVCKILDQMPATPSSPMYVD
UniProt Q9Y6D9: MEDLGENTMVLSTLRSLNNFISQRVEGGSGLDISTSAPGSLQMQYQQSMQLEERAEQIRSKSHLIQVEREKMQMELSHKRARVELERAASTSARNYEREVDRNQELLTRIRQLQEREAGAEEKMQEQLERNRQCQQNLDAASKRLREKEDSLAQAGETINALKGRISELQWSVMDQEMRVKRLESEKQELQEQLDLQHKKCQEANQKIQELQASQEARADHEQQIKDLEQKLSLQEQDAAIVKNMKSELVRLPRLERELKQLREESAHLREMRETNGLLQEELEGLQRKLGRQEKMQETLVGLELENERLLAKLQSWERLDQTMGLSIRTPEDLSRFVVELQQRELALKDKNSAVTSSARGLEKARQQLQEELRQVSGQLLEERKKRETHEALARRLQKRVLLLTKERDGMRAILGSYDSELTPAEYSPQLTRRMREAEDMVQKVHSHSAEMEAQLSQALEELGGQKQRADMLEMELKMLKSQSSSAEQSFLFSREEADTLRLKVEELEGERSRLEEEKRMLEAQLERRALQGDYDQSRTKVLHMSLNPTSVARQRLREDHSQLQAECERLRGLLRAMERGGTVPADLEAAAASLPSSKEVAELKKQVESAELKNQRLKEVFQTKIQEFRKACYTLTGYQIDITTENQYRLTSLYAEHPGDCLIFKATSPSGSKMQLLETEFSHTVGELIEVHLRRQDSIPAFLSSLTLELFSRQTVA
UniProt Q9Y383: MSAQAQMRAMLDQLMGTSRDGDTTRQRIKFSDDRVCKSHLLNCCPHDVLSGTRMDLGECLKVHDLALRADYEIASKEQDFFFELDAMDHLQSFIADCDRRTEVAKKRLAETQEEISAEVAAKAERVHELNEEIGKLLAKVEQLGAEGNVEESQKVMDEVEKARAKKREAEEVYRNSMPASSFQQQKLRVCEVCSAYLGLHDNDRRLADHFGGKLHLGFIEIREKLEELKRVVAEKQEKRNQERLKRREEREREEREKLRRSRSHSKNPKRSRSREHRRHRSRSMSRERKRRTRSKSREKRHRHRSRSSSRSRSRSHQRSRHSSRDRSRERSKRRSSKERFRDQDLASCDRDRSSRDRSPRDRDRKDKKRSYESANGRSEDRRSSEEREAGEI
UniProt Q86V48: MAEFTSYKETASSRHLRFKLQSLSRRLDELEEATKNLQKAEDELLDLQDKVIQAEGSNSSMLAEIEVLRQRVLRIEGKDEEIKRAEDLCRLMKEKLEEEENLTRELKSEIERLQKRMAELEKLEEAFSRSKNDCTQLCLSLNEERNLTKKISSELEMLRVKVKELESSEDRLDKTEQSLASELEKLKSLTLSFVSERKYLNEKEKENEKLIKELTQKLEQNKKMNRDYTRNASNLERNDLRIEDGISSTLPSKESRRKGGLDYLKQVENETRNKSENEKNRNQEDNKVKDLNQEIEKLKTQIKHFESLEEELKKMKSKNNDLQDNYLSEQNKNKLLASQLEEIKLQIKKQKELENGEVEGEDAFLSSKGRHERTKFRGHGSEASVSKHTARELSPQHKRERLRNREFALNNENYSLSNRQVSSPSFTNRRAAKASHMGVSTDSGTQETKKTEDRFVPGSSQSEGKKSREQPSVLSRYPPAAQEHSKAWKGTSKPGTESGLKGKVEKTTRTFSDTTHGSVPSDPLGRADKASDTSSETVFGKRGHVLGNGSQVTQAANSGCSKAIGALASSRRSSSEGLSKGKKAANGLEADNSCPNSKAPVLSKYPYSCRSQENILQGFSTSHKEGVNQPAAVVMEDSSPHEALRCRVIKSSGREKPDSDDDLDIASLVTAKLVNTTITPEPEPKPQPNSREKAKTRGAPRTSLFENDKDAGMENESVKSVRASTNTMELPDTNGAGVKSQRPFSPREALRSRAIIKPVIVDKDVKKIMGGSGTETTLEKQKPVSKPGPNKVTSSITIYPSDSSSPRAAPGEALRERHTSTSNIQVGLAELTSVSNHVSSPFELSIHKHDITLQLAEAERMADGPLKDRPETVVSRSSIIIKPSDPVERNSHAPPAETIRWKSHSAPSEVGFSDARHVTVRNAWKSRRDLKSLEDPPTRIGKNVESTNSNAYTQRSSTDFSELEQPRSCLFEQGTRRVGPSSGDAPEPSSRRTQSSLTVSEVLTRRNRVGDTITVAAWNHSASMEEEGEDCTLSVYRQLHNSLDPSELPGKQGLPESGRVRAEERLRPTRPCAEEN
UniProt Q5VWZ2: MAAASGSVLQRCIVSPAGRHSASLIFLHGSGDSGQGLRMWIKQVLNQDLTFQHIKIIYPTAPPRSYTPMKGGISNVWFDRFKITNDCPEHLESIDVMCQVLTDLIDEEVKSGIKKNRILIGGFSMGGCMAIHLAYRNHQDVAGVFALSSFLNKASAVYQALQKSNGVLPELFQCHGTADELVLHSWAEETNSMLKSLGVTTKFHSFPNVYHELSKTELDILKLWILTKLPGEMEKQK
UniProt Q96A72, whole entry, looked up: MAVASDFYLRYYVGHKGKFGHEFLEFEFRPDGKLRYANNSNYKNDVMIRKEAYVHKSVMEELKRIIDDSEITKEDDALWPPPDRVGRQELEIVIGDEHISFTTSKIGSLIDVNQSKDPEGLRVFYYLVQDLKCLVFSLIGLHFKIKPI
UniProt O00462: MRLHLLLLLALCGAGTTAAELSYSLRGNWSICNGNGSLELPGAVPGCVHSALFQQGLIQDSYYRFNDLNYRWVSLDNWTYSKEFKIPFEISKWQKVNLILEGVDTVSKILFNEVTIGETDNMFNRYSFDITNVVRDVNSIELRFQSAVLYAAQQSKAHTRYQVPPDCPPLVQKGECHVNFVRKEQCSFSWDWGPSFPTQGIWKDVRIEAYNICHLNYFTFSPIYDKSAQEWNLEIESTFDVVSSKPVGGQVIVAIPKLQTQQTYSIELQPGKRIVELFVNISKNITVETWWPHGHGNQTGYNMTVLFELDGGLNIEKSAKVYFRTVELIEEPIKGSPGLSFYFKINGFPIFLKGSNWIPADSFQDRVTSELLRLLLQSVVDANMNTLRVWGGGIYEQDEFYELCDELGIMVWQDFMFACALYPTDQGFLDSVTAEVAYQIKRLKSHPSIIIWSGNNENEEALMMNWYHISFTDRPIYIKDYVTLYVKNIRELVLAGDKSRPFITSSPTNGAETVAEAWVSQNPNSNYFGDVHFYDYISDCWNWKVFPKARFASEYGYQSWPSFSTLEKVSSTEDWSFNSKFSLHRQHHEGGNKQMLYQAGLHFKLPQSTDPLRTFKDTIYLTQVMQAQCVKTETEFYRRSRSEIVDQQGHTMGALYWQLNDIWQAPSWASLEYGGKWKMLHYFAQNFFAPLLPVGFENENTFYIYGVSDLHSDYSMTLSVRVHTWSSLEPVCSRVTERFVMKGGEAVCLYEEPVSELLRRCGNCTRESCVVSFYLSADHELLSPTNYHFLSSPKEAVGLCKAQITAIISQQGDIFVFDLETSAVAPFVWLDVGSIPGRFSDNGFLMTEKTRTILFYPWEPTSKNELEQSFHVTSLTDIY
UniProt P49641: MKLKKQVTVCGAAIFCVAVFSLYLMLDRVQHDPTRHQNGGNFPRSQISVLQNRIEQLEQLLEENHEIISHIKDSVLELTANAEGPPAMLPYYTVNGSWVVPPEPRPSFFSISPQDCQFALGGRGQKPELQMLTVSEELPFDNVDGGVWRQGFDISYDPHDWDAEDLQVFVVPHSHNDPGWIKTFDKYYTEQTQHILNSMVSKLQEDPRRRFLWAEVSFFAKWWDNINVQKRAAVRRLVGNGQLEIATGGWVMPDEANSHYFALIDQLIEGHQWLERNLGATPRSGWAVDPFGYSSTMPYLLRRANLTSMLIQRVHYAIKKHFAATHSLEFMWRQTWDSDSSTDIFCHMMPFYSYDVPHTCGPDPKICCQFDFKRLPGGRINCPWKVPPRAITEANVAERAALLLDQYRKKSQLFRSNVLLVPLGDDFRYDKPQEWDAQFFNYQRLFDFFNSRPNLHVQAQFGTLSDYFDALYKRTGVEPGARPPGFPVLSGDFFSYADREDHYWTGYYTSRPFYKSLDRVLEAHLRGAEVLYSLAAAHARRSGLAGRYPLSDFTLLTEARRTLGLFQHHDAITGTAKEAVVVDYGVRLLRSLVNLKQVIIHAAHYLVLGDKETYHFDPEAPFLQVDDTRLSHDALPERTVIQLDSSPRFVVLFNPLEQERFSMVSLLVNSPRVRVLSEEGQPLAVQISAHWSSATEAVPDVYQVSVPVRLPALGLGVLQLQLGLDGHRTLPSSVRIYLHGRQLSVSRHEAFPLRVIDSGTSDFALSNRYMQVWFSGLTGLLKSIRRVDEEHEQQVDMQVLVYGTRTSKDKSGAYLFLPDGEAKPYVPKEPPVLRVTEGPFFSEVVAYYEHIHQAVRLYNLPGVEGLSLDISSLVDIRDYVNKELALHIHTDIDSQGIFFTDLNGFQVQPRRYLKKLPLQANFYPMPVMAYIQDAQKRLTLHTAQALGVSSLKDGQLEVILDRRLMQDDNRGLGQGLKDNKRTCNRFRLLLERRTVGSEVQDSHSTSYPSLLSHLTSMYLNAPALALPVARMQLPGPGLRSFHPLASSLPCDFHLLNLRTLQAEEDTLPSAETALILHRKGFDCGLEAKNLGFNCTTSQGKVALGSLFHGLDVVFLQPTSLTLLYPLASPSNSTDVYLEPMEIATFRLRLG
UniProt P20645: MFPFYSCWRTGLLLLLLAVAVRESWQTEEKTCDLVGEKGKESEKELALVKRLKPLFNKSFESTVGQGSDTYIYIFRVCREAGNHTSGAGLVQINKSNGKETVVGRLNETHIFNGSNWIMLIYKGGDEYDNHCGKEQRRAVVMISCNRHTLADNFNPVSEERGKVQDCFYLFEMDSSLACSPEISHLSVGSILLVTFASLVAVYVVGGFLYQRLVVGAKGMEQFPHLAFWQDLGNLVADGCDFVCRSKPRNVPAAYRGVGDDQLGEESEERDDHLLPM
UniProt P28482, whole entry, looked up: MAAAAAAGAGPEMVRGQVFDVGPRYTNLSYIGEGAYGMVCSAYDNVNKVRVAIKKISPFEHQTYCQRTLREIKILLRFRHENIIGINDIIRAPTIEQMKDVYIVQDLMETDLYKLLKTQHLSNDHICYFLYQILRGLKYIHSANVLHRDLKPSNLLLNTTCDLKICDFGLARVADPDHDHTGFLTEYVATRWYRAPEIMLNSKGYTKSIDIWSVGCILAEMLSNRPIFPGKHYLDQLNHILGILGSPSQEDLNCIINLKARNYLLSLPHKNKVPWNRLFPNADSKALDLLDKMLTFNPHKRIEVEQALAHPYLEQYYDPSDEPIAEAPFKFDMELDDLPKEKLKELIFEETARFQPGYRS
UniProt Q9UPY8, whole entry, looked up: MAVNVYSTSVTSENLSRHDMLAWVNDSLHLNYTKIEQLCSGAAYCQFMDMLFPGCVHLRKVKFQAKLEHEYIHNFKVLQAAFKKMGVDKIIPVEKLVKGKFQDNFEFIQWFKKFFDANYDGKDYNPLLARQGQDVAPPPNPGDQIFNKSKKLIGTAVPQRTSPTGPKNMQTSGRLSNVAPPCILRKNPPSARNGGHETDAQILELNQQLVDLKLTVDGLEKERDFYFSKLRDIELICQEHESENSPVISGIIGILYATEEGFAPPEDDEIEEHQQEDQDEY

Experiments:
Test in all cases: log2 fold change, soluble protein after heating vs DMSO (PISA); higher = thermal stabilisation; K562 lysate, 10 uM; active = over 0.2 and 3.5 SD of the protein, either way, in both replicates (recomputed)
lapatinib = compound: CS(=O)(=O)CCNCc1ccc(-c2ccc3ncnc(Nc4ccc(OCc5cccc(F)c5)c(Cl)c4)c3c2)o1 [lapatinib]
Procedure, shortened: (§1)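 Soluble protein was defined as the supernatant remaining after 21,000xg for 90 min, following pooling of heated aliquots and adjustment to 0.5% NP-40 at 4°C. Before that, crude K562 extract at 1 mg/mL protein in PBS pH 7.4 with 1 mM MgCl2 was treated with 10 μM compound for 30 min and heated for 3 min across 48°C-58°C. Quantification used TMTpro 16plex LC-MS/MS with channel sums equalised, and values are log-two fold changes in thermal stability relative to solvent controls from duplicates.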

pictilisib = compound: CS(=O)(=O)N1CCN(Cc2cc3nc(-c4cccc5[nH]ncc45)nc(N4CCOCC4)c3s2)CC1 [pictilisib]
Procedure, shortened: as §1

crizotinib = compound: C[C@@H](Oc1cc(-c2cnn(C3CCNCC3)c2)cnc1N)c1c(Cl)ccc(F)c1Cl [crizotinib]
Procedure, shortened: as §1

[1] = compound: C[C@H](C1=CC=C(C=C1)C(=O)NC2=C3C=CNC3=NC=C2)N
Procedure, shortened: as §1

duvelisib = compound: C[C@H](Nc1ncnc2nc[nH]c12)c1cc2cccc(Cl)c2c(=O)n1-c1ccccc1 [duvelisib]
Procedure, shortened: as §1

gandotinib = compound: Cc1cc(Nc2cc(CN3CCOCC3)c3nc(C)c(Cc4ccc(Cl)cc4F)n3n2)n[nH]1 [gandotinib]
Procedure, shortened: as §1

tozasertib = compound: Cc1cc(Nc2cc(N3CCN(C)CC3)nc(Sc3ccc(NC(=O)C4CC4)cc3)n2)n[nH]1 [tozasertib]
Procedure, shortened: as §1

doramapimod = compound: Cc1ccc(-n2nc(C(C)(C)C)cc2NC(=O)Nc2ccc(OCCN3CCOCC3)c3ccccc23)cc1 [doramapimod]
Procedure, shortened: as §1

bafetinib = compound: Cc1ccc(NC(=O)c2ccc(CN3CC[C@H](N(C)C)C3)c(C(F)(F)F)c2)cc1Nc1nccc(-c2cncnc2)n1 [bafetinib]
Procedure, shortened: as §1

[2] = compound: Cc1cccc(CC(=O)N2CCc3c2ccc(-c2cn(C)c4ncnc(N)c24)c3F)n1
Procedure, shortened: as §1

nilotinib = compound: Cc1cn(-c2cc(NC(=O)c3ccc(C)c(Nc4nccc(-c5cccnc5)n4)c3)cc(C(F)(F)F)c2)cn1 [nilotinib]
Procedure, shortened: as §1

[3] = compound: Cc1nc(Nc2n[nH]c3c2CN(C(=O)N[C@H](CN(C)C)c2ccccc2)C3(C)C)c2sccc2n1
Procedure, shortened: as §1

dasatinib = compound: Cc1nc(Nc2ncc(C(=O)Nc3c(C)cccc3Cl)s2)cc(N2CCN(CCO)CC2)n1 [dasatinib]
Procedure, shortened: as §1

[4] = compound: Cc1ncc(-c2ccnc(Nc3ccc(S(C)(=O)=O)cc3)n2)n1C(C)C
Procedure, shortened: as §1

[5] = compound: Cn1cc(-c2ccc3c(c2)CCN3C(=O)Cc2cccc(C(F)(F)F)c2)c2c(N)ncnc21
Procedure, shortened: as §1

quisinostat = compound: Cn1cc(CNCC2CCN(c3ncc(C(=O)NO)cn3)CC2)c2ccccc21 [quisinostat]
Procedure, shortened: as §1

tipifarnib = compound: Cn1cncc1[C@@](N)(c1ccc(Cl)cc1)c1ccc2c(c1)c(-c1cccc(Cl)c1)cc(=O)n2C [tipifarnib]
Procedure, shortened: as §1

[6] = compound: NC(=O)Nc1cc(-c2cccc(F)c2)sc1C(=O)N[C@H]1CCCNC1
Procedure, shortened: as §1

[7] = compound: NC(=O)c1cnc(N[C@@H]2CCCC[C@@H]2N)nc1Nc1cccc(-n2nccn2)c1
Procedure, shortened: as §1

[8] = compound: NC1(c2ccc(-c3nc4ccn5c(=O)[nH]nc5c4cc3-c3ccccc3)cc2)CCC1
Procedure, shortened: as §1

Measured: log2 fold change

MAK16 (UniProt Q9BXY0)
inactive: lapatinib -0.05 | pictilisib -0.072 | crizotinib -0.026 | [1] 0.021 | duvelisib 0.028 | gandotinib 0.02 | tozasertib 0.019 | doramapimod -0.003 | bafetinib -0.015 | [2] -0.001 | nilotinib -0.01 | [3] -0.019 | dasatinib 0.002 | [4] 0.047 | [5] 0.034 | quisinostat 0.06 | tipifarnib 0.021 | [6] 0.011 | [7] -0.044 | [8] 0.016

LYSMD1 (UniProt Q96S90)
inactive: lapatinib 0.009 | pictilisib 0.011 | crizotinib 0.016 | [1] -0.031 | duvelisib 0.012 | gandotinib 0.081 | tozasertib 0.011 | doramapimod 0.075 | bafetinib -0.016 | [2] -0.017 | nilotinib -0.002 | [3] -0.022 | dasatinib -0.035 | [4] 0.006 | [5] 0.021 | quisinostat -0.07 | tipifarnib 0.019 | [6] 0.019 | [7] 0.018 | [8] -0.014

MAP2K4 isoform 2 (UniProt P45985)
active: [1] 0.619
inactive: lapatinib -0.036 | pictilisib -0.077 | crizotinib -0.086 | duvelisib -0.012 | gandotinib -0.031 | tozasertib -0.087 | doramapimod -0.032 | bafetinib -0.05 | [2] -0.059 | nilotinib -0.013 | [3] 0.052 | dasatinib -0.014 | [4] 0.248 | [5] 0.046 | quisinostat -0.112 | tipifarnib -0.023 | [6] 0.019 | [7] 0.063 | [8] 0

MAD1L1 (UniProt Q9Y6D9)
inactive: lapatinib 0.027 | pictilisib 0.021 | crizotinib 0.006 | [1] -0.02 | duvelisib -0.015 | gandotinib 0.152 | tozasertib -0.003 | doramapimod 0.086 | bafetinib -0.066 | [2] 0.074 | nilotinib -0.001 | [3] 0.025 | dasatinib 0.021 | [4] -0.001 | [5] -0.001 | quisinostat -0.009 | tipifarnib -0.021 | [6] -0.019 | [7] 0.007 | [8] 0.026

LUC7L2 (UniProt Q9Y383)
inactive: lapatinib -0.01 | pictilisib 0.02 | crizotinib 0.025 | [1] 0.015 | duvelisib 0.014 | gandotinib -0.142 | tozasertib 0.043 | doramapimod 0.028 | bafetinib -0.008 | [2] -0.008 | nilotinib 0.007 | [3] -0.026 | dasatinib 0.017 | [4] -0.012 | [5] 0.004 | quisinostat 0.028 | tipifarnib 0.036 | [6] -0.112 | [7] -0.009 | [8] 0.062

Copied from the entries so far (3 entries):
LYSMD1 (UniProt Q96S90)
inactive: lapatinib 0.009 | pictilisib 0.011 | crizotinib 0.016 | [1] -0.031 | duvelisib 0.012 | gandotinib 0.081 | tozasertib 0.011 | doramapimod 0.075 | bafetinib -0.016 | [2] -0.017 | nilotinib -0.002 | [3] -0.022 | dasatinib -0.035 | [4] 0.006 | [5] 0.021 | quisinostat -0.07 | tipifarnib 0.019 | [6] 0.019 | [7] 0.018 | [8] -0.014

MAP2K4 isoform 2 (UniProt P45985)
active: [1] 0.619
inactive: lapatinib -0.036 | pictilisib -0.077 | crizotinib -0.086 | duvelisib -0.012 | gandotinib -0.031 | tozasertib -0.087 | doramapimod -0.032 | bafetinib -0.05 | [2] -0.059 | nilotinib -0.013 | [3] 0.052 | dasatinib -0.014 | [4] 0.248 | [5] 0.046 | quisinostat -0.112 | tipifarnib -0.023 | [6] 0.019 | [7] 0.063 | [8] 0

MAD1L1 (UniProt Q9Y6D9)
inactive: lapatinib 0.027 | pictilisib 0.021 | crizotinib 0.006 | [1] -0.02 | duvelisib -0.015 | gandotinib 0.152 | tozasertib -0.003 | doramapimod 0.086 | bafetinib -0.066 | [2] 0.074 | nilotinib -0.001 | [3] 0.025 | dasatinib 0.021 | [4] -0.001 | [5] -0.001 | quisinostat -0.009 | tipifarnib -0.021 | [6] -0.019 | [7] 0.007 | [8] 0.026

(further entries)

LUZP1 (UniProt Q86V48)
inactive: lapatinib -0.006 | pictilisib -0.02 | crizotinib -0.012 | [1] 0.008 | duvelisib -0.026 | gandotinib 0.036 | tozasertib -0.011 | doramapimod -0.009 | bafetinib -0.034 | [2] -0.011 | nilotinib 0.013 | [3] -0.046 | dasatinib -0.004 | [4] -0.02 | [5] 0.062 | quisinostat -0.03 | tipifarnib -0.005 | [6] 0.109 | [7] 0.01 | [8] 0.027

LYPLAL1 (UniProt Q5VWZ2)
inactive: lapatinib -0.006 | pictilisib -0.013 | crizotinib 0.094 | [1] -0.043 | duvelisib 0.003 | gandotinib 0.003 | tozasertib 0.006 | doramapimod -0.037 | bafetinib -0.014 | [2] 0.021 | nilotinib -0.026 | [3] -0.023 | dasatinib -0.009 | [4] 0.018 | [5] 0.001 | quisinostat 0.025 | tipifarnib 0.045 | [6] -0.012 | [7] -0.024 | [8] 0.026

MAGOHB (UniProt Q96A72)
inactive: lapatinib -0.006 | pictilisib 0.009 | crizotinib 0.019 | [1] -0.177 | duvelisib -0.015 | gandotinib 0.027 | tozasertib 0 | doramapimod -0.015 | bafetinib -0.01 | [2] 0.065 | nilotinib 0.021 | [3] -0.023 | dasatinib -0.04 | [4] -0.02 | [5] -0.002 | quisinostat 0.063 | tipifarnib -0.007 | [6] 0.035 | [7] -0.012 | [8] -0.031

MANBA (UniProt O00462)
inactive: lapatinib -0.009 | pictilisib -0.033 | crizotinib -0.015 | [1] -0.048 | duvelisib 0.024 | gandotinib 0.097 | tozasertib 0.093 | doramapimod 0.01 | bafetinib -0.075 | [2] 0.06 | nilotinib -0.032 | [3] 0.001 | dasatinib 0.007 | [4] 0.005 | [5] 0.022 | quisinostat -0.034 | tipifarnib 0.007 | [6] 0.037 | [7] 0.016 | [8] 0.004

MAN2A2 (UniProt P49641)
inactive: lapatinib -0.032 | pictilisib -0.026 | crizotinib 0.018 | [1] 0.001 | duvelisib -0.014 | gandotinib 0.039 | tozasertib 0.053 | doramapimod 0.059 | bafetinib -0.17 | [2] 0.036 | nilotinib -0.005 | [3] -0.031 | dasatinib 0.018 | [4] -0.035 | [5] 0.029 | quisinostat -0.051 | tipifarnib -0.038 | [6] 0.054 | [7] 0.074 | [8] -0.029

M6PR (UniProt P20645)
inactive: lapatinib 0.005 | pictilisib 0.063 | crizotinib 0.012 | [1] -0.031 | duvelisib 0.047 | gandotinib 0.018 | tozasertib -0.036 | doramapimod -0.03 | bafetinib 0.177 | [2] 0.008 | nilotinib -0.054 | [3] 0.069 | dasatinib 0.009 | [4] -0.029 | [5] 0.016 | quisinostat 0.003 | tipifarnib -0.041 | [6] 0.009 | [7] 0.042 | [8] 0.03

MAPRE2 (UniProt Q15555)
inactive: lapatinib -0.003 | pictilisib 0.009 | crizotinib -0.026 | [1] 0.119 | duvelisib -0.01 | gandotinib -0.057 | tozasertib -0.016 | doramapimod 0.02 | bafetinib -0.005 | [2] -0.03 | nilotinib -0.022 | [3] 0.012 | dasatinib -0.021 | [4] -0.019 | [5] 0.012 | quisinostat 0.025 | tipifarnib 0.042 | [6] 0.017 | [7] 0.025 | [8] 0.016

LYZ (UniProt P61626)
inactive: lapatinib -0.195 | pictilisib 0.061 | crizotinib 0.98 | [1] 0.37 | duvelisib 0.017 | gandotinib -0.249 | tozasertib -0.01 | doramapimod -0.097 | bafetinib 0.686 | [2] 0.258 | nilotinib -0.007 | [3] -0.211 | dasatinib -0.078 | [4] 0.001 | [5] 1.25 | quisinostat -0.035 | tipifarnib -0.207 | [6] 0.305 | [7] -0.05 | [8] 0.422

MAPK1 (UniProt P28482)
inactive: lapatinib -0.018 | pictilisib 0.005 | crizotinib 0.065 | [1] -0.004 | duvelisib 0.004 | gandotinib 0.036 | tozasertib -0.01 | doramapimod -0.013 | bafetinib 0.004 | [2] -0.061 | nilotinib -0.042 | [3] 0.205 | dasatinib -0.014 | [4] 0.091 | [5] -0.01 | quisinostat 0.07 | tipifarnib 0.011 | [6] 0.01 | [7] 0.088 | [8] 0.003

MAPRE3 (UniProt Q9UPY8)
inactive: lapatinib 0.008 | pictilisib -0.007 | crizotinib 0.096 | [1] 0.159 | duvelisib -0.006 | gandotinib -0.212 | tozasertib 0.029 | doramapimod 0.013 | bafetinib 0.057 | [2] -0.15 | nilotinib 0.022 | [3] -0.013 | dasatinib 0.088 | [4] -0.053 | [5] 0.054 | quisinostat 0.146 | tipifarnib 0.014 | [6] -0.03 | [7] 0.006 | [8] 0.009

MAP1A (UniProt P78559)
inactive: lapatinib -0.001 | pictilisib 0.008 | crizotinib -0.005 | [1] -0.011 | duvelisib 0.017 | gandotinib 0.012 | tozasertib -0.009 | doramapimod -0.024 | bafetinib -0.045 | [2] 0.004 | nilotinib -0.005 | [3] 0.003 | dasatinib -0.012 | [4] 0.009 | [5] 0.002 | quisinostat -0.023 | tipifarnib 0.012 | [6] 0.022 | [7] -0.001 | [8] -0.002
